No constants are given. Whether binding was seen depends on the method and setting. Binding seen in cells or lysates may run through a third protein. For some of these results: Binding can be weak; no strength is given. Where a sequence is shown, tags or fusion partners need not be part of it. Blank lines part the entries; values can stand above or below the molecule they belong to.
Key:
[1] = target: T1, GST-Pap1 (S. pombe) (UniProt Q01663); test: pull-down; GST fusion from E. coli lysate bound to MagneGST beads (4°C, 4 h) and washed four times; beads incubated overnight at 4°C with E. coli lysate expressing the His fusion; wash buffer 25 mM Tris-HCl pH 7.2, 150 mM NaCl, 1 mM EDTA, 1 mM EGTA, 1% Triton X-100, 0.5% Nonidet P-40, 1 mM DTT; western blot with anti-His; only the target purified
T1 sequence: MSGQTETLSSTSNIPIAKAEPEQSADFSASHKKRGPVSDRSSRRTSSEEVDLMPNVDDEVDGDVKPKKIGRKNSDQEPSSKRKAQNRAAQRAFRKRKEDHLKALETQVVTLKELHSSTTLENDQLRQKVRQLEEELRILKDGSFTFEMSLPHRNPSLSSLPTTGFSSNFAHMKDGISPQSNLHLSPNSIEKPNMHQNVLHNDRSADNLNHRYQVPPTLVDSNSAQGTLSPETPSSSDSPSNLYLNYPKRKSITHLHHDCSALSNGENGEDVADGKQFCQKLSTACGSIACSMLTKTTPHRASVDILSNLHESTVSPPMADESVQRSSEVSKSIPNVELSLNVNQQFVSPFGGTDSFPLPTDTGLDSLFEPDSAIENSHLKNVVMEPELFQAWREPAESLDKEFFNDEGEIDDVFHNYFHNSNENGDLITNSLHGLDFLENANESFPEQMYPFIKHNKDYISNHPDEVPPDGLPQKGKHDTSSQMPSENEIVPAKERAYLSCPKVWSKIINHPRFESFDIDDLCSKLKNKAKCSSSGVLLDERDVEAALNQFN

Sequences of proteins named here, by UniProt entry; tags and fusion partners are left off. A change or cut given only in a name is not applied to a line headed by its entry.
UniProt O94389: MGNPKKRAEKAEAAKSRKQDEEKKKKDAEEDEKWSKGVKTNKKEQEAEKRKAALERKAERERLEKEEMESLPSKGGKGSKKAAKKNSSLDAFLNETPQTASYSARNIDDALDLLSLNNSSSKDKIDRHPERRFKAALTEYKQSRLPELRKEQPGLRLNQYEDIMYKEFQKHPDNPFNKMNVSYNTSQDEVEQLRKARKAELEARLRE
UniProt F4I2U5: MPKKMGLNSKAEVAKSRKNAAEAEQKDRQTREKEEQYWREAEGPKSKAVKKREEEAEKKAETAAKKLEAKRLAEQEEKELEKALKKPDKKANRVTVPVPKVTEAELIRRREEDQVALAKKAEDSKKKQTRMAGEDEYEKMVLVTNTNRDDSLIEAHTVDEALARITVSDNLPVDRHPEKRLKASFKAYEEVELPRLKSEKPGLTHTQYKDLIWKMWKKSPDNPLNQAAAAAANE
UniProt P05412: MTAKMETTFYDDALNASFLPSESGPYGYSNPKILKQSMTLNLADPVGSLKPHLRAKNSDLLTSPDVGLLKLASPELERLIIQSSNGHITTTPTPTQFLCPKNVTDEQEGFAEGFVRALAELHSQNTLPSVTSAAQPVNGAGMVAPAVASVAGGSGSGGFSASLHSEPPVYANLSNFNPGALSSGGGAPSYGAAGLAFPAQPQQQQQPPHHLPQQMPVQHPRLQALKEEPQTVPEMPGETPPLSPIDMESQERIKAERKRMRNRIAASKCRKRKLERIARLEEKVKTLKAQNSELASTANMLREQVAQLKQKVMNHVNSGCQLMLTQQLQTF

[2] = target: GST-Oxs1 (S. pombe) (UniProt O94389); test: as above
[3] = target: GST-AtOxs1 (Arabidopsis) (UniProt F4I2U5); test: as above
[4] = target: T2, HA-Pap1 (S. pombe) (UniProt Q01663); test: condition: only cells treated with H2O2 (0.2 mM, 5 min) instead of diamide or Cd; co-IP; extracts of S. pombe knock-in strain producing HA-Pap1 and FLAG-Oxs1, cells treated with H2O2 (0.2 mM, 5 min); immunoprecipitated with anti-HA, detected with anti-FLAG
T2 sequence: T1 sequence

[5] = target: T2, HA-Pap1 (S. pombe); test: co-IP; extracts of S. pombe knock-in strain producing HA-Pap1 and FLAG-Oxs1, cells untreated; immunoprecipitated with anti-HA, detected with anti-FLAG
[6] = target: T2, HA-Pap1 (S. pombe); test: co-IP; extracts of S. pombe knock-in strain producing HA-Pap1 and FLAG-Oxs1, cells treated with diamide (1 mM, 3 h) or Cd (0.1 mM, 3 h); immunoprecipitated with anti-HA, detected with anti-FLAG

binding [1]: binds
Molecule: His-Oxs1 (from UniProt O94389)

binding [2]: binds
Molecule: His-HscJun (from UniProt P05412 1-331)
binding [3]: binds

binding [4]: no binding
binding [6]: binds
Molecule: FLAG-Oxs1 (S. pombe)
binding [5]: no binding (only cells untreated (no diamide or Cd))

binding [2]: binds
B1: His-Pap1 (protein, UniProt Q01663 1-552)
chain: T1 sequence
binding [3]: binds

binding [2]: binds
B2: His-AtbZIP10 (protein, UniProt O22763 1-411)
chain: MNSIFSIDDFSDPFWETPPIPLNPDSSKPVTADEVSQSQPEWTFEMFLEEISSSAVSSEPLGNNNNAIVGVSSAQSLPSVSGQNDFEDDSRFRDRDSGNLDCAAPMTTKTVIVDSDDYRRVLKNKLETECATVVSLRVGSVKPEDSTSSPETQLQPVQSSPLTQGELGVTSSLPAEVKKTGVSMKQVTSGSSREYSDDEDLDEENETTGSLKPEDVKKSRRMLSNRESARRSRRRKQEQTSDLETQVNDLKGEHSSLLKQLSNMNHKYDEAAVGNRILKADIETLRAKVKMAEETVKRVTGMNPMLLGRSSGHNNNNRMPITGNNRMDSSSIIPAYQPHSNLNHMSNQNIGIPTILPPRLGNNFAAPPSQTSSPLQRIRNGQNHHVTPSANPYGWNTEPQNDSAWPKKCVD
binding [3]: binds
